## Binding screen against folded nucleic acids

Calls as published in the ROBIN set (doi:10.1002/anie.202211358).

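Each compound is printed as two spots on a slide made to bind it covalently, so it has no test concentration; the read-out is fluorescence of the bound, labelled oligonucleotide. The data file lists only calls. An earlier report of the laboratory on the PreQ1, TPP and SAM-II riboswitches (doi:10.1038/s41467-019-09493-3) used 1 µM RNA for 2 h and required a mean Z-score above 3 (spot signal-to-noise against the whole library), a score well above that on a control array, and duplicate spots agreeing (coefficient of variation under 100); it then also set aside compounds that hit other targets, which this list keeps. The cut-offs behind this list may differ. These are primary screening calls, not affinities; a compound without a hit may have attached poorly or may still bind in solution.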
A compound is marked 1 if it was called a hit and 0 if it was screened but was not.
Compounds were drawn at random from those tested, without regard to their results.
A dash means that no call is listed here.

Targets, with sequences 5′ to 3′:
T1: SAM-II riboswitch RNA pseudoknot, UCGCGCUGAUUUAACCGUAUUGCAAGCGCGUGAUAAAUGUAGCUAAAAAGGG. About 200 hits among about 21,000 compounds.
T2: PreQ1 riboswitch RNA pseudoknot, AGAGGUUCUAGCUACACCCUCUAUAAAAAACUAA. From B. subtilis. About 170 hits among about 24,000 compounds.
T3: TPP riboswitch RNA three-way junction, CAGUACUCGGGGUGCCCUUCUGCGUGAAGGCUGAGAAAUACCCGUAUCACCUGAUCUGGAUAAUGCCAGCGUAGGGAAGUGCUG. About 160 hits among about 24,000 compounds.

Compound	T1	T2	T3
OCCNCc1cccc(OCc2ccc(F)cc2)c1	0	0	0
CCCNCc1cccc(-c2cc[nH]n2)c1	0	0	0
COc1cc(N2CCCN(c3ccc(F)cc3)CC2)nc(N)n1	0	0	0
CCC1CCC(C(=O)NCC(=O)N2CCCC3(CCNC3)C2)CC1 (stereo not shown)	0	0	0
Nc1nnc(SCc2cc3c(cc2Cl)OCO3)s1	0	0	0
O=[As](O)(O)c1ccc(/N=N/c2ccc(O)cc2)cc1	0	0	0
Cn1c(=O)n(C)c2cc(CNCCOCCO)ccc21	-	0	0
CCOC(=O)c1cnc2ccc(F)cc2c1NCc1cccnc1	0	0	0
CCCc1ccc(-c2ccc(C(=O)N3CCC(CN)C3)cc2)cc1 (stereo not shown)	0	1	0
CCc1ccc(-n2nc(CO)c(C(=O)NC(C)c3ccc(Cl)cc3)n2)cc1 (stereo not shown)	-	0	0
OCCC1CN(c2nccc(-c3ccccn3)n2)CCN1Cc1ccoc1 (stereo not shown)	0	0	0
Cc1cc(C(C)Nc2ccccc2)c2nc(N3CCOCC3)cc(=O)n2c1 (stereo not shown)	0	0	0
Cc1ccccc1Cn1c(C(C)O)nc2ccccc21 (stereo not shown)	0	0	0
CN1CCN(C(=O)C2CN(CC=Cc3ccccc3)CCN2)CC1 (stereo not shown)	0	0	0
CCCOc1ccc(N2C(=O)CC(SCCN)C2=O)cc1 (stereo not shown)	0	0	0
N=c1c2c3c(sc2ncn1CCO)CCCCC3	0	0	0
COc1ccccc1OC1CN(C(=O)c2ccc3[nH]c(CO)nc3c2)C1	0	0	0
O=C(C1NCCc2[nH]cnc21)N1CCN(c2nsc3ccccc23)CC1 (stereo not shown)	0	0	0
CC(C)C(=O)Nc1cc(NC(=O)N2CCOCC(O)C2)ccc1F (stereo not shown)	0	0	0
C#CCN1C(=O)C2(C(C(=O)OCC)=C(C)OC(N)=C2C(=O)OCC)c2ccccc21 (stereo not shown)	0	0	0
Cc1ccc(CN(CCO)C(=O)c2cccc(-c3ccc(O)cc3)c2)s1	0	0	0
CC(=O)N1CCN(C(=O)CCc2nc3cc(F)ccc3[nH]2)CC(O)C1 (stereo not shown)	0	0	0
CC1(C)CC(NC(=S)NC2CCCCC2)CC(C)(C)N1	0	0	0
CCCC=Cc1cc(N)nc(N2CCCC2)n1	0	0	0
CC(C)C1CN(CCOCCO)CCCN1Cc1ccc(F)cc1 (stereo not shown)	0	0	0
Cc1nc(C)c(CN2C(=O)NC3(CCNCC3)C2=O)o1	0	0	0
CC1(C)CC(=O)C=C(Nc2cc(-c3ccccc3)n[nH]2)C1	0	0	0
O=C(CCN1CCC[C@H]1CO)NC1CCCCCC1	0	0	0
CC(=O)NCCNCc1cc(O)c2cc(F)ccc2n1	0	0	0
Cc1cc(C)cc(CN2CCN(C(=O)Cc3ccc(CO)cc3)CC2=O)c1	0	0	0
c1cncc(-c2nc3c(c(N4[C@H]5CCNC[C@@H]4CC5)n2)CNC3)c1	0	0	0
CCC(NC(=O)c1ccc2[nH]c(CO)nc2c1)c1ccc(F)cc1 (stereo not shown)	0	0	0
COc1ccc(-c2c(C)nc3nc(C)nn3c2N)cc1	-	0	0
CC1(C)NCCN2C(=O)CSC21 (stereo not shown)	0	0	0
Cn1nc(C2CCN(C(=O)Cn3nnnc3N)CC2)n(-c2ccccc2)c1=O	0	0	0
Cc1cc(NC(=O)CSc2nnc(N)s2)no1	0	0	0
Cc1cccnc1CN1CCN(C(=O)c2ccc3[nH]c(CO)nc3c2)CC1	0	0	0
Cc1cccc(N(CC(=O)NCc2cc3n(n2)CCNC3)S(C)(=O)=O)c1	0	0	0
FC(F)(F)c1cccc(Nc2ncnc3sc4c(c23)CCCC4)c1	0	0	0
CCCCNc1cc(C)nc2nc(-c3ccc(Cl)cc3)nn12	-	0	0
O=C(c1ccc2c(c1)ncn2CCO)N1CCC2(CC1)OCCCC2O (stereo not shown)	0	0	0
C=C(C)COc1cccc(NC(=O)N2CCC(O)(CO)C2)c1 (stereo not shown)	0	0	0
O=C(NCCN1CCc2ccccc2C1)c1ccc(C2CCCNC2)cc1 (stereo not shown)	0	0	0
O=S(=O)(c1ccc(Cl)cc1)c1cnc2ccccc2c1Nc1ccccc1	-	0	0
Cc1cc2c(c(=O)n1CCN(C)C)C(c1ccc3c(c1)OCO3)C(C#N)=C(N)O2 (stereo not shown)	0	0	0
CCC12CN3CC(CC)(CN(C1)C3C(C)(C)CO)C2=O (stereo not shown)	0	0	0
CCC(=O)c1cc2c(cc1N)OCCO2	0	0	0
O=C(CCc1cc2n(n1)CCNC2)Nc1ccc(Nc2ccccc2)nc1	0	0	0
Fc1cc(Br)ccc1Nc1nc2ccccc2n2cnnc12	0	0	0
O=C(c1cn2ccsc2n1)N1CCOCC(O)C1 (stereo not shown)	0	0	0
N[C@@H]1c2ccccc2C2(CCN(C(=O)CCCOc3ccccc3)CC2)[C@H]1O	0	0	0
COc1ncccc1-c1cc(N2CCN(C)CC2)nc(N)n1	0	0	0
CCOc1ccccc1-n1nnc(-c2nc(-c3ccc(F)cc3)no2)c1N	-	0	0
Nc1cnn(-c2ccccc2)c(=O)c1Cl	0	0	0
CO[C@H]1[C@H](NC(=O)CN2C(=O)CNC2=O)c2ccccc2C12CCNCC2	0	0	0
CC(C)Cc1cc(C(=O)N2CCN(CCCCO)CC2)n(C)n1	0	0	0
Nc1cc2c(cc1C(=O)O)OCO2	0	0	0
CCCn1c(C)c(C)c(S(=O)(=O)c2ccc(Cl)cc2)c1N	0	0	0
O=P1(NCCCl)OCCCN1CCCl (stereo not shown)	0	0	0
O=C(NCCCO)c1ccc2snnc2c1	-	0	0
COc1ccc(CN[C@H]2CS(=O)(=O)C[C@@H]2S(=O)(=O)c2ccccc2)cc1OC	-	0	0
OCC1CCCCN1Cc1ccc(-c2ccccc2)cc1 (stereo not shown)	0	0	0
CCc1ccc(NC(=O)c2nnn(CC(=O)Nc3ccccc3C)c2N)cc1	0	0	0
CCC(O)c1nc2ccccc2n1CCCOc1ccccc1OC (stereo not shown)	-	0	0
Cc1ccc(N)c(C(=O)CCCCC(=O)O)c1	0	0	0
COc1ccc(-c2cn3c4c(=O)n(C)c(=O)n(C)c4nc3n2CCO)cc1OC	0	0	0
CCC(NCCOC(C)C)C(=O)Nc1ccccc1 (stereo not shown)	0	0	0
COc1ccccc1CN[C@H]1CS(=O)(=O)C[C@@H]1S(=O)(=O)c1ccc(Cl)cc1	-	0	0
CC(=O)Nc1ccc(OCC(O)Cn2c3ccc(Cl)cc3c3cc(Cl)ccc32)cc1 (stereo not shown)	0	0	0
Cc1ccc(S(=O)(=O)N(CC(O)CN2CCCCC2)c2cccc3ccccc23)cc1 (stereo not shown)	0	0	0
O=c1ncn2nc(Sc3ccc(F)cc3F)ccc2c1-c1c(Cl)cccc1Cl	0	0	0

For reference, 8 entries once more:

Compound	T1	T2	T3
COc1ccc(-c2c(C)nc3nc(C)nn3c2N)cc1	-	0	0
CCOC(=O)c1cnc2ccc(F)cc2c1NCc1cccnc1	0	0	0
Nc1cc2c(cc1C(=O)O)OCO2	0	0	0
Nc1nnc(SCc2cc3c(cc2Cl)OCO3)s1	0	0	0
Cc1cc(C(C)Nc2ccccc2)c2nc(N3CCOCC3)cc(=O)n2c1 (stereo not shown)	0	0	0
O=C(NCCCO)c1ccc2snnc2c1	-	0	0
O=C(NCCN1CCc2ccccc2C1)c1ccc(C2CCCNC2)cc1 (stereo not shown)	0	0	0
O=S(=O)(c1ccc(Cl)cc1)c1cnc2ccccc2c1Nc1ccccc1	-	0	0